Data: patent publication US4925844A, “Antagonizing the pharmacological effects of a benzodiazepine receptor agonist” (ICI Americas Inc., priority 1989, dated 1990)

Test system: rats
Experiment: Neuromuscular impairment / roto-rod test
Conditions: intraperitoneal dose of 20 mg per kg diazepam alone
Description: Further tests may be conducted to evaluate the agonist/antagonist profile of a compound. The procedures or methods used to determine anticonflict (shock-induced suppressions of drinking test), antagonism of metrazole-induced convulsions and neuromuscular impairment (roto-rod studies) are published in Eur. J. Pharmacol. 78(3):323-333 (1980) and briefly discussed below. To determine the antagonist properties of a test compound, subjects are treated with test agent intraperitoneally or orally at selected intervals prior to or following treatment with a benzodiazepine agonist, and are then tested under the appropriate test conditions.
A roto-rod test (Rinnard and Car, J. Pharmacol. and Exp. Therap. 121:354 (1957)) which measures the rat's muscle tone and ability to perform coordinated locomotor tasks may be used to evaluate a test compound's antagonist properties. In the roto-rod test, rats are trained to maintain themselves for at least 1 min on a rotating rod (6 r.p.m.). Subjects are treated with a test compound and are retested for their ability to maintain themselves on the roto-rod at 30 and 60 min. post-drug administration. Subjects that fail to stay on the rod for a one-minute period are considered to be neuromuscularly impaired (ataxia) and the ED50 (that dose which would be expected to produce ataxia in 50% of the rats tested) is calculated. […]

SMILES: CN1C(=O)CN=C(c2ccccc2)c2cc(Cl)ccc21 [diazepam]
- neuromuscular impairment (inability to remain on the roto-rod): significant neuromuscular impairment
